Experimental data published in paper PMC8580993.
No constants are given. Whether binding was seen depends on the method and setting. Binding seen in cells or lysates may run through a third protein. Some entries that bind do so weakly or less than the wild type. Sequences can lack the tags named with a protein.

Amino acid sequences for entries named in this document (tags omitted).
UniProt Q96EB6: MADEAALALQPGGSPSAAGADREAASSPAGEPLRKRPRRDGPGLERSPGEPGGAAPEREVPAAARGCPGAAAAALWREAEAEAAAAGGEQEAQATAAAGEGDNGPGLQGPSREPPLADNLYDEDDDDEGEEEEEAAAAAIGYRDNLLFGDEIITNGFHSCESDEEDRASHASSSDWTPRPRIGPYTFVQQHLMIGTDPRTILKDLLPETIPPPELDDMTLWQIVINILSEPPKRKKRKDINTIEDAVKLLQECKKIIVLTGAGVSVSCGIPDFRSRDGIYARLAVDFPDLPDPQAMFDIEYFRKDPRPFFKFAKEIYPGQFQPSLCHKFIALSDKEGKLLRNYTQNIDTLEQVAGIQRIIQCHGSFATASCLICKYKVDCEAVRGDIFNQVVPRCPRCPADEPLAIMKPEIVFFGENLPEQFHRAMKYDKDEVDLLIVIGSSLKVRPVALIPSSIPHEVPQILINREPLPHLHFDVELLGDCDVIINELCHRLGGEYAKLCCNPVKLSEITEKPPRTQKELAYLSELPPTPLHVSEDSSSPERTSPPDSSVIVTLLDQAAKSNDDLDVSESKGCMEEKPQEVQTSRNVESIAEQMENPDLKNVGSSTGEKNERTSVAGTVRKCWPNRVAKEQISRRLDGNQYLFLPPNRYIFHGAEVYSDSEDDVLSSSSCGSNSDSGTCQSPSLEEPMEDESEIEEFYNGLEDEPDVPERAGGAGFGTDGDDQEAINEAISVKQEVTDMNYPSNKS

Target: Flag-tagged SIRT1 (UniProt Q96EB6)
Experiment: co-IP; hiPSC-CMs transfected with Flag-tagged SIRT1 and myc-tagged USP22 and sh-NC or sh-circ-SIRT1#1; lysate precipitated with anti-Flag plus A/G sepharose beads overnight at 4 °C; western blot for myc

binding: binds
B1: myc-tagged USP22 (enzyme, UniProt Q9UPT9 1-525)
chain: MVSRPEPEGEAMDAELAVAPPGCSHLGSFKVDNWKQNLRAIYQCFVWSGTAEARKRKAKSCICHVCGVHLNRLHSCLYCVFFGCFTKKHIHEHAKAKRHNLAIDLMYGGIYCFLCQDYIYDKDMEIIAKEEQRKAWKMQGVGEKFSTWEPTKRELELLKHNPKRRKITSNCTIGLRGLINLGNTCFMNCIVQALTHTPLLRDFFLSDRHRCEMQSPSSCLVCEMSSLFQEFYSGHRSPHIPYKLLHLVWTHARHLAGYEQQDAHEFLIAALDVLHRHCKGDDNGKKANNPNHCNCIIDQIFTGGLQSDVTCQVCHGVSTTIDPFWDISLDLPGSSTPFWPLSPGSEGNVVNGESHVSGTTTLTDCLRRFTRPEHLGSSAKIKCSGCHSYQESTKQLTMKKLPIVACFHLKRFEHSAKLRRKITTYVSFPLELDMTPFMASSKESRMNGQYQQPTDSLNNDNKYSLFAVVNHQGTLESGHYTSFIRQHKDQWFKCDDAIITKASIKDVLDSEGYLLFYHKQFLEYE
